The values that follow come from PubChem BioAssay AID256 (DTP/NCI, 2004).

Molecules are shown by their SMILES. The list does not hold the whole screen: it is rich in T/C values a quarter to a half above the control, in often repeated tests (any T/C) and in doses without a T/C. Other doses and runs of a compound stand elsewhere. T/C is the treated group as % of the vehicle group. Some doses have a count of surviving animals in place of a T/C: the source holds a T/C of zero for them, seemingly a mark for toxic or unscored doses. Some doses without a T/C left all or most animals alive at the check, yet need not have been tolerated: survival well below the control is almost never listed, so the zero probably covers shortened survival too. Counts of survivors are from the toxicity check (mostly the fifth day) where no day follows; animals may have died later. Schedule codes are those of the source, read here as Q, the interval in days (D) or hours (H), X, the number of doses. Some doses were run more than once; their values stand side by side, smallest first. Where survival is the endpoint, the PubChem record calls one and a half times the control and up active, and a quarter to a half above the control has no call in these data; cut-offs in other NCI protocols can differ.

This experiment deals with CD2F1 mice, L1210 leukemia ip, survival T/C. The experiment can be described thus: NCI In Vivo Anticancer Drug Screen. Data for tumor model L1210 Leukemia (intraperitoneal) in CD2F1 (CDF1) mice. The following applies: higher T/C = longer survival. The method, boiled down:
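Each value reflects a quotient of treated over vehicle control outcomes in mice with a transplanted tumor.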

The mark [1] stands for this setting: T/C endpoint: mean survival time, dose: 400.0 mg/kg/injection, schedule: Q04DX002 (ip), vehicle: saline with Tween-80.
The mark [2] stands for this setting: T/C endpoint: mean survival time, dose: 100.0 mg/kg/injection, schedule: Q01DX009 (ip), vehicle: Klucel (hydroxypropylcellulose) (HPC).
Setting [3] is: T/C endpoint: mean survival time, dose: 200.0 mg/kg/injection, schedule: Q04DX002 (ip), vehicle: saline with Tween-80.
The mark [4] stands for this setting: T/C endpoint: mean survival time, dose: 100.0 mg/kg/injection, schedule: Q01DX001 (ip), vehicle: saline.
[5] abbreviates: T/C endpoint: mean survival time, dose: 400.0 mg/kg/injection, schedule: Q01DX001 (ip), vehicle: saline.
The mark [6] stands for this setting: T/C endpoint: mean survival time, dose: 200.0 mg/kg/injection, schedule: Q04DX003 (ip), vehicle: saline with Tween-80.
[7] abbreviates: T/C endpoint: mean survival time, dose: 400.0 mg/kg/injection, schedule: Q04DX003 (ip), vehicle: saline with Tween-80.
[8] abbreviates: T/C endpoint: mean survival time, dose: 400.0 mg/kg/injection, schedule: Q01DX009 (ip), vehicle: saline with Tween-80.
Setting [9] is: T/C endpoint: mean survival time, dose: 200.0 mg/kg/injection, schedule: Q04DX002 (ip), vehicle: saline.
Where [10] appears, read: T/C endpoint: mean survival time, dose: 150.0 mg/kg/injection, schedule: Q01DX001 (ip), vehicle: saline.
Where [11] appears, read: T/C endpoint: mean survival time, dose: 300.0 mg/kg/injection, schedule: Q01DX001 (ip), vehicle: saline.

In the case of `N=c1nc2n(cc1F)[C@@H]1O[C@H](CO)[C@@H](O)[C@@H]1O2`, the T/C is 138 % of control (T/C endpoint: mean survival time, dose: 25.0 mg/kg/injection, schedule: Q01DX009 (ip), vehicle: saline); 126 % of control (T/C endpoint: mean survival time, dose: 34.0 mg/kg/injection, schedule: Q04DX003 (ip), vehicle: saline); 132 % of control (T/C endpoint: mean survival time, dose: 800.0 mg/kg/injection, schedule: Q01DX009 (ip), vehicle: saline); 140 % of control (T/C endpoint: median survival time, dose: 32.0 mg/kg/injection, schedule: Q01DX005 (ip), vehicle: saline); 148 % of control (T/C endpoint: median survival time, dose: 64.0 mg/kg/injection, schedule: Q01DX005 (ip), vehicle: saline); 148 % of control (T/C endpoint: median survival time, dose: 128.0 mg/kg/injection, schedule: Q01DX005 (ip), vehicle: saline).

Turning to `CCC1NC(=O)C(NC(=O)c2ncccc2O)C(C)OC(=O)C(c2ccccc2)NC(=O)C2CC(=O)CCN2C(=O)C(Cc2ccccc2)N(C)C(=O)C2CCCN2C1=O` (stereo unspecified), the survivor count under setting [1] is listed as 1 of 3.

As to `OCC1OC(n2cnc3cncnc32)C(O)C1O` (stereo unspecified), the T/C (T/C endpoint: mean survival time, dose: 12.5 mg/kg/injection, schedule: Q01DX009 (ip), vehicle: saline) was 127 % of control.

Turning to `Nc1nc(N)c2c(n1)CCCC2`, the survivor count (T/C endpoint: mean survival time, dose: 50.0 mg/kg/injection, schedule: Q01DX009 (ip), vehicle: saline with Tween-80) is 1 of 6.

`Nc1cc(=O)c2cn[nH]c2[nH]1`: the survivor count (T/C endpoint: mean survival time, dose: 200.0 mg/kg/injection, schedule: Q01DX005 (ip), vehicle: other) is recorded as 6 of 6.

As to `O=c1scc(-c2ccc(Br)cc2)s1`, the survivor count by setting is: (T/C endpoint: mean survival time, dose: 50.0 mg/kg/injection, schedule: Q01DX009 (ip), vehicle: Klucel (hydroxypropylcellulose) (HPC)) 1 of 6 and 2 of 6; under setting [2], 0 of 6; (T/C endpoint: mean survival time, dose: 200.0 mg/kg/injection, schedule: Q01DX009 (ip), vehicle: Klucel (hydroxypropylcellulose) (HPC)) 0 of 6.

Regarding `C=CCNC(=S)n1cnc(N)n1`, the survivor count under setting [3] is reported as 2 of 3 and the survivor count under setting [1] is 0 of 3.

Take `Cc1cccc(C)c1OC(=O)Cl`: the survivor count reads like this: (T/C endpoint: mean survival time, dose: 80.0 mg/kg/injection, schedule: Q01DX001 (ip), vehicle: saline) 2 of 6; under setting [4], 0 of 6; (T/C endpoint: mean survival time, dose: 200.0 mg/kg/injection, schedule: Q01DX001 (ip), vehicle: saline) 0 of 6; under setting [5], 0 of 6.

Take `CCCCCCCC1SC(=S)NC1=O` (stereo unspecified): the survivor count (T/C endpoint: mean survival time, dose: 200.0 mg/kg/injection, schedule: Q01DX009 (ip), vehicle: other) is 2 of 5.

`CCCN1CCN(c2ccccc2)CC1`: the survivor count runs as follows: under setting [6], 2 of 6; under setting [7], 0 of 6.

As to `CCN(C(=O)c1ccccc1Cl)C(c1ccco1)P(=O)(c1ccccc1)c1ccccc1` (stereo unspecified), under setting [8], the survivor count is 3 of 3.

With `N#CCCCSc1ccccc1`, the survivor count under setting [5] is 0 of 6.

Consider `Cc1nc2c(O)cccn2c(=O)c1Cl`, for which the survivor count is, setting by setting: under setting [6], 6 of 6; under setting [7], 4 of 6.

For the compound `CN(C)C(=O)c1ccc(Cl)c(Cl)c1`, the survivor count under setting [8] is listed as 6 of 6.

Consider `C[n+]1ccc(Cc2ccccc2)cc1`, for which the survivor count reads like this: (T/C endpoint: mean survival time, dose: 100.0 mg/kg/injection, schedule: Q04DX002 (ip), vehicle: saline) 0 of 3; under setting [9], 0 of 3; (T/C endpoint: mean survival time, dose: 400.0 mg/kg/injection, schedule: Q04DX002 (ip), vehicle: saline) 0 of 3.

In the case of `CN(N=O)C(=O)NCC1OC(OC2(CO)OC(CNC(=O)N(C)N=O)C(O)C2O)C(O)C(O)C1O` (stereo unspecified), the T/C is, setting by setting: (T/C endpoint: mean survival time, dose: 200.0 mg/kg/injection, schedule: Q01DX009 (ip), vehicle: saline) 125 and 129 % of control; (T/C endpoint: mean survival time, dose: 300.0 mg/kg/injection, schedule: Q01DX009 (ip), vehicle: saline) 137 % of control; (T/C endpoint: mean survival time, dose: 400.0 mg/kg/injection, schedule: Q01DX009 (ip), vehicle: saline) 148 % of control.

Consider `CCCCCc1cc(/C=C2/N=C(c3ccc[nH]3)C=C2OC)[nH]c1C`, for which, under “T/C endpoint: mean survival time, dose: 8.0 mg/kg/injection, schedule: Q01DX009 (ip), vehicle: saline with Tween-80”, the survivor count is reported as 5 of 6.

Consider `CC1(O)CC23CC(O)C4(O)C(CC(O)C4(C)C)C(C)(O)C2CCC1C3O` (stereo unspecified), for which the survivor count (T/C endpoint: median survival time, dose: 1.0 mg/kg/injection, schedule: Q01DX009 (ip), vehicle: Klucel (hydroxypropylcellulose) (HPC)) is recorded as 1 of 10.

As to `CCCCCCC(O)C/C=C\CCCCCCCC(=O)O` (stereo unspecified), the survivor count under setting [9] is given as 0 of 3.

With `O=NN(CCCl)C(=O)NC1C(O)C(O)C(O)C(O)C1O` (stereo unspecified), the T/C is 131 % of control (T/C endpoint: mean survival time, dose: 9.0 mg/kg/injection, schedule: Q01DX001 (ip), vehicle: saline); 143 % of control (T/C endpoint: mean survival time, dose: 16.5 mg/kg/injection, schedule: Q01DX001 (ip), vehicle: saline); 128 % of control (T/C endpoint: mean survival time, dose: 67.0 mg/kg/injection, schedule: Q01DX001 (ip), vehicle: saline). The survivor count is 10 of 10 under setting [4] and 9 of 10 under setting [10].

Take `C[CH2][Pb]([CH2]C)([CH2]C)[O]C(=O)c1ccc2ccccc2n1`: the survivor count reads like this: (T/C endpoint: mean survival time, dose: 3.13 mg/kg/injection, schedule: Q01DX009 (ip), vehicle: saline with Tween-80) 6 of 6; (T/C endpoint: mean survival time, dose: 6.25 mg/kg/injection, schedule: Q01DX009 (ip), vehicle: saline with Tween-80) 3 of 6; (T/C endpoint: mean survival time, dose: 12.5 mg/kg/injection, schedule: Q01DX009 (ip), vehicle: saline with Tween-80) 0 of 6.

With `C[N+]1(Cc2ccccc2)C2CCC1C(CCl)C(O)C2` (stereo unspecified), the survivor count reads like this: (T/C endpoint: mean survival time, dose: 100.0 mg/kg/injection, schedule: Q04DX003 (ip), vehicle: saline) 0 of 3; (T/C endpoint: mean survival time, dose: 200.0 mg/kg/injection, schedule: Q04DX003 (ip), vehicle: saline) 0 of 3; (T/C endpoint: mean survival time, dose: 400.0 mg/kg/injection, schedule: Q04DX003 (ip), vehicle: saline) 0 of 3.

Consider `C=CC[n+]1ccccc1/C=C\c1ccc(N(C)C)cc1`, for which the survivor count was 0 of 6 under setting [10] and 0 of 6 under setting [11].

Take `CCOc1ccc(OCC)c(NC(=O)Nc2ccccc2C)c1`: the survivor count is, setting by setting: (T/C endpoint: mean survival time, dose: 100.0 mg/kg/injection, schedule: Q04DX002 (ip), vehicle: saline with Tween-80) 3 of 3; under setting [3], 3 of 3.

For the compound `O=[N+]([O-])O.[Zn+2].c1ccncc1`, the survivor count runs as follows: under setting [10], 0 of 6; under setting [11], 0 of 6.

For the compound `O=P1(N(CCCl)CCCl)NCCCO1.[Cl][Sb]([Cl])[Cl]` (stereo unspecified), the survivor count was 0 of 6 (T/C endpoint: mean survival time, dose: 250.0 mg/kg/injection, schedule: Q01DX001 (ip), vehicle: olive oil, sesame oil, peanut oil) and 0 of 6 (T/C endpoint: mean survival time, dose: 500.0 mg/kg/injection, schedule: Q01DX001 (ip), vehicle: olive oil, sesame oil, peanut oil).

For `C1CCC2OCCOCCOC3CCCCC3OCCOCCOC2C1` (stereo unspecified), under setting [2], the survivor count is recorded as 1 of 6.
